Literature values in patent US8273771B2, “Ischemic disorder or disease inhibitors” (Pronas Pharma AB, priority 2007, dated 2012).
At least one structure is not confirmed: it was looked up by name or label, or the drawing left a doubt.

Experiments:
Conditions in all cases: cited from earlier work
PKCγ = PKCγ (Homo sapiens, UniProt P05129)
PKCε = target: T1, PKCε (Homo sapiens, UniProt Q02156)
T1 sequence (Q02156 1-737): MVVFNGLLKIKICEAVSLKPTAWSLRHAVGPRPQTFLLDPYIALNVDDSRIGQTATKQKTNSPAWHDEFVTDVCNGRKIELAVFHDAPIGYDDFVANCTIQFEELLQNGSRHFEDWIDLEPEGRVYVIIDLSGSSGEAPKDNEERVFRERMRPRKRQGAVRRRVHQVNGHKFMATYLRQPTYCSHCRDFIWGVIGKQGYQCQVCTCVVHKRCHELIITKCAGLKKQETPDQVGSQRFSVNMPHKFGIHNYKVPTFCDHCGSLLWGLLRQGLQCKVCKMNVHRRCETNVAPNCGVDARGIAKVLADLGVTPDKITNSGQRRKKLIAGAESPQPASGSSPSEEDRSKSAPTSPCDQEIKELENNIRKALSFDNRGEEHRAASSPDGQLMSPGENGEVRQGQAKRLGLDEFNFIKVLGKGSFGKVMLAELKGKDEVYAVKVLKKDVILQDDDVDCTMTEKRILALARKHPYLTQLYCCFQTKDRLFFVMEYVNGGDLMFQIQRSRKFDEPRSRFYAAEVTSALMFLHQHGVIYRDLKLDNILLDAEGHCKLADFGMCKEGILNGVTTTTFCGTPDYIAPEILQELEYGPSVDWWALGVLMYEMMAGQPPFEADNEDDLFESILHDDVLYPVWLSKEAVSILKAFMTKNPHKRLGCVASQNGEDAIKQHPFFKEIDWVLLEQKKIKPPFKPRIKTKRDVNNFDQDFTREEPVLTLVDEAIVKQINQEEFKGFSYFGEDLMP

PKCα = PKCα (Homo sapiens, UniProt P17252)

Cn1cc(C2=C(c3cn(CCCN)c4ccccc34)C(=O)NC2=O)c2ccccc21 [RO-31-7549]
IC50 for PKCγ (PKCγ): 10-^6.7 mol/L | IC50 for PKCε (PKCε): 10-^6.8 mol/L | IC50 for PKCα (PKCα): 10-^7 mol/L
